# Reference: PubChem BioAssay AID504408 (Broad Institute, 2011)
# Among all 300,000 compounds or so, about 5,200 (1.7%) were called active. The inconclusive results got no clear call from the source; some entries with a clear call stand among them for comparison.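 Rule for the calls: active = mean replicate activation of at least 50% with a set share of replicates each reaching 50%; inconclusive = only one of those two conditions met; inactive = mean below 50% and too few replicates reaching it.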
# Test: HSF-1 activators, primary screen, NIH3T3-HGL cells, MG132 stress, luminescence, single point (AID 504408);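 note: 0% = median of the neutral control wells and 100% = twice that signal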
# Conditions: NIH3T3-HGL HSF-1 luciferase reporter, MG132, 8 h; at 9 µM; stronger effect = higher value; 100% = twice DMSO control signal
row,SMILES,activation
1,O=C(Nc1nccs1)c1ccc(COc2ccc(F)cc2)o1,inconclusive: 52.6%
2,Cc1cc(NC(=O)c2cc3cccc([N+](=O)[O-])c3[nH]2)ccc1F,inconclusive: 51.8%
3,OC(CNCc1ccc(F)cc1)(c1ccc(F)cc1)c1ccc(F)cc1,inconclusive: 51.5%
4,COc1ccc(/C=C/C(=O)NC(=S)Nc2cc([N+](=O)[O-])ccc2O)cc1OC,inactive: 8.66%
5,N#C/C(=C/c1ccc(N2CCOCC2)o1)c1ccc(Cl)cc1,inactive: 38.7%
6,COP(=O)(OC)c1nc(-c2cccc3ccccc23)oc1NCc1ccccc1,active: 87.4%
7,CCOC(=O)c1c(S(=O)(=O)NCC2CCN(CCc3cccs3)CC2)c(C)n(C)c1C,inconclusive: 51.4%
8,COc1cccc(NC(=O)c2cc3ccccc3oc2=O)c1,inconclusive: 52.1%
9,Cc1ccc2cccc(NS(=O)(=O)c3ccccc3)c2n1,active: 140%
10,Cc1ccc(NCCC(=O)c2cccs2)cc1Cl,inconclusive: 59.4%
11,CN(C(=O)/C=C/c1ccccc1)C1CCCCC1,inconclusive: 52.9%
12,O=[N+]([O-])c1ccc(O)c(/C=N/Nc2nc3ccccc3[nH]2)c1,inconclusive: 96.8%
13,Cc1cnc(C(=O)Nc2ccc(N3CCCCC3)cc2)cn1,inactive: 24.2%
14,CCCN(CC(=O)Nc1ccccc1C)C(=O)CCl,inactive: 0.601%
15,O=C(NC(=S)Nc1ccccc1C(F)(F)F)c1ccccc1F,active: 76.1%
16,Nc1c(C(=O)c2ccccc2)sc2snc(SCC(=O)c3ccccc3)c12,active: 111%
17,CCC(C)NC(=O)c1nc2c(nnn2Cc2ccccc2Cl)c(=O)[nH]1 (centres undefined),inconclusive: 48.4%
18,COc1cccc(CNC(=O)Cn2cccc2C(=O)c2ccccc2C)c1,inactive: 0.978%
19,COc1ccc(CC(=O)Nc2ccc(-c3cn4ccc(C)cc4n3)cc2)cc1,inconclusive: 51.2%
20,Cc1cc(O)c(C(=O)Nc2cccc(Cl)c2)c(=O)n1C,inconclusive: 54.1%
21,Clc1ccccc1OCc1nnc(-c2ccccc2)o1,inconclusive: 50.1%
22,O=C(COc1ccccc1-c1ccccc1)NNC(=O)NC1CCCCC1,inconclusive: 53.6%
23,COc1cccc(CN(C)C(=O)c2cccc(S(=O)(=O)N3CCN(c4ccc(F)cc4)CC3)c2)c1OC,inactive: 3.24%
24,O=C1c2ccc3c4c(ccc(c24)C(=O)N1CCCCO)C(=O)N(CCCCO)C3=O,inconclusive: 51.1%

row,SMILES,activation
1,CCc1noc(C)c1C(=O)Nc1cc(Cl)ccc1N1CCCC1,inactive: 7.83%
2,Cc1cc(C[n+]2cc(Br)ccc2N)c2ncccc2c1,inactive: -21.7%
3,Fc1ccccc1-c1nc(-c2ccccc2)no1,inconclusive: 55.8%
4,CCc1ccc(C(C(=O)NC2CCCC2)N(C(=O)/C=C/C(=O)Nc2cc(C)on2)c2ccccc2C)cc1 (centres undefined),inactive: 21.8%
5,O=C(Nc1ccccc1C(=O)OCC(=O)c1c[nH]c2ccccc12)c1ccco1,active: 105%
6,Cn1cc(/C=C2\SC(=O)N(c3ccc(O)cc3)C2=O)c2ccccc21,inconclusive: 53.3%
7,O=C(COC(=O)c1cccc(S(=O)(=O)N2CCOCC2)c1)c1ccccc1,inactive: 24.4%
8,O=C(NC1CCCCC1)C(c1ccccc1)N(Cc1ccco1)C(=O)c1csnn1 (centres undefined),inconclusive: 52%
9,COc1ccc(N/C=C(\C=C\C#N)S(=O)(=O)c2ccccc2)cc1,inconclusive: 53.2%
10,CCN(CC)S(=O)(=O)c1ccc2oc(Nc3ccccc3)nc2c1,inconclusive: 56%
11,CCOC(=O)CNC(=O)c1sc2nc(C)cc(C)c2c1N,inconclusive: 51.2%
12,Cn1cccc1C(=O)C(=O)Nc1ccccc1C(F)(F)F,inconclusive: 53.7%
13,COC(=O)N1C(=O)[C@@](c2ccccc2)(C2CCCCC2)N1C(=O)OC,inconclusive: 51.7%
14,CCOC(=O)c1sc2nc(C)nc(SCC(=O)NC3CCS(=O)(=O)C3)c2c1C (centres undefined),inconclusive: 53.3%
15,CC(C)(C)CC(=O)NCCc1csc(-c2ccccc2)n1,active: 63.4%
16,Cc1cccc(NC(=S)N/N=C/c2c[nH]c3ccccc23)c1,inconclusive: 49.1%
17,CCN(CC(=O)Nc1c(F)cccc1F)C(=O)C1CCN(S(=O)(=O)c2ccc(C)cc2C)CC1,inactive: 8.55%
18,N#Cc1nc(-c2cccc3ccccc23)oc1NCCN1CCCCC1,active: 70.2%
19,CCOc1ccc(-n2cc(C(=O)N3CCC(C)CC3)c3cc(OC)c(OC)cc3c2=O)cc1,active: 66.1%
20,CCCSc1nsc(NC(=O)CCC)n1,inconclusive: 56.2%
21,COc1nc(-c2ccc(C)cc2)ccc1-c1noc(-c2ccco2)n1,inactive: 9.43%
22,COC(=O)N1C(=O)[C@](c2ccccc2)(C2CCCCC2)N1C(=O)OC,inconclusive: 50.5%
23,NCCCCCc1nnc(SCC(=O)c2ccc(Cl)cc2)o1,active: 58%
24,CC(=O)c1c(N2CCOCC2)nc2ccc(Br)cc2c1-c1ccccc1,inconclusive: 51%

row,SMILES,activation
1,Oc1ccccc1CNc1ccc(Br)cn1,inconclusive: 51.7%
2,Cc1ccc(/C=N/Nc2ccc(C(=O)O)cc2)s1,inactive: -78.6%
3,O=C(NC1CCCC1)C(c1ccccc1)N(Cc1cccnc1)C(=O)Cc1cccs1 (centres undefined),active: 54.6%
4,S=C(Nc1ccccc1)N1CCCCCCC1,inconclusive: 52.1%
5,Cc1cc(NC(=O)CN2C(=O)c3ccccc3C2=O)no1,inactive: 12.6%
6,C=CCNc1nc(-c2ccccn2)nnc1-c1ccccc1,inactive: -1.75%
7,COCCN(C(=O)CNC(=O)c1ccco1)C(C(=O)NC1CCCC1)c1ccccc1 (centres undefined),inconclusive: 50.8%
8,Cc1cc(C)cc(NC(=O)COC(=O)c2n[nH]c3ccccc23)c1,inactive: 16.2%
9,NS(=O)(=O)c1ccc(NC(=S)Nc2ccc(Br)c(Cl)c2)cc1,inconclusive: 51.7%
10,CCC(=O)Nc1ccc(NC(=O)c2cc3ccccc3o2)c(OC)c1,inconclusive: 56.2%
11,O=C(C1CC(=O)N(c2ccc(F)cc2)C1)N1CCCCCC1 (centres undefined),inactive: -17.3%
12,COC(=O)c1cc(NC(=O)/C=C/c2ccccc2)ccc1O,inconclusive: 53.1%
13,COCCNC(=S)N/N=C/c1ccc(N2CCOCC2)cc1,inconclusive: 62.8%
14,CCOc1ccc(N(CC(=O)Nc2ccc(OC)cc2)S(C)(=O)=O)cc1,inactive: 15.5%
15,Cc1nc(N2CCCCC2C)c2c(C)c(C(=O)Nc3ccccc3C(F)(F)F)sc2n1 (centres undefined),inactive: 23.1%
16,O=C(CSc1nc2c(sc3ccccc32)c(=O)n1CCO)NCc1ccco1,inconclusive: 51.5%
17,COc1cc2c(cc1NC(=O)CSc1nc3ccc(C)cc3[nH]1)oc1ccccc12,active: 73.8%
18,CC(C)=C1C2CCC1C1C(=O)N(c3nc(-c4ccccc4)c(C)s3)C(=O)C21 (centres undefined),active: 74.1%
19,O=C1CCCC(O)=C1C=Nc1cccc(C(F)(F)F)c1,inconclusive: 52.8%
20,O=c1[nH]c(/C=C/c2ccc(Br)cc2)nc2ccccc12,active: 64.6%
21,CCOCC(=O)Nc1nc2ccccc2s1,inconclusive: 50.3%
22,CCc1nnc(N/N=C/c2c(Cl)cccc2Cl)n1N,inconclusive: 59.4%
23,CC(C)c1ccc(-n2cnn(-c3ncccc3[N+](=O)[O-])c2=O)cc1,active: 53.7%
24,O=C(O)CC12C[C@H]3C[C@@H](C1)CC(n1ncc(N4CCN(c5ccccc5)CC4)c(Cl)c1=O)(C3)C2,inconclusive: 53.8%

row,SMILES,activation
1,C=CCn1c(Sc2ncc([N+](=O)[O-])s2)n[nH]c1=O,inconclusive: 54.5%
2,O=C(Nc1ccccc1)O/N=C/c1ccc(F)cc1,inconclusive: 58.6%
3,Cc1ccc(NC(=O)c2cnn(-c3ccccc3)c2C)cc1,active: 72%
4,CN(Cc1cccc2cnccc12)C(=O)c1cc(COc2ccc(F)cc2F)on1,inconclusive: 50.8%
5,Clc1ccc(CSc2nnc(-c3sccc3-n3cccc3)o2)cc1,inconclusive: 51%
6,O=C(CSc1n[nH]c(=O)n1C1CC1)c1ccc2c(c1)OCCO2,inconclusive: 51.3%
7,CCNC(=S)N/N=C(\C)c1cccc([N+](=O)[O-])c1,inconclusive: 51.4%
8,O=C(Nc1ccc(SC(F)F)cc1)c1ccc(F)cc1,inconclusive: 51.1%
9,O=Cc1c(Sc2ccccn2)nc2ccccn2c1=O,inactive: 20.5%
10,COc1cccc(-c2cc(C(=O)N3CCOCC3)no2)c1,active: 60.9%
11,Nc1nnc(SCC(=O)Nc2cccc3ccccc23)s1,inconclusive: 54.1%
12,N#Cc1ccccc1NC(=O)CSc1nnc(-c2ccccc2)n1-c1ccccc1,inactive: 0.916%
13,CCOC(=O)N1CCC(NS(=O)(=O)c2ccc3c(c2)C(C)(C)C(=O)N3C)CC1,inconclusive: 51.8%
14,O=C(CNCc1ccc(Cl)cc1)Nc1ccc2c(c1)OCCO2,inconclusive: 58%
15,CC(C)c1ccc(OCC(=O)NC2CCCC2)cc1,inconclusive: 55.4%
16,CC(=O)Nc1cccc(-c2cc(-c3c(Cl)cccc3Cl)no2)c1,inactive: 23.8%
17,Cc1nn(C(C)C(=O)NCCCN2CCCCC2C)c(=O)c2c1sc1ccccc12 (centres undefined),inconclusive: 53.9%
18,Clc1nc2c(-c3ccccc3)nnn2c2ccccc12,inconclusive: 52.2%
19,Cc1nn(-c2cccc(C(=O)O)c2)c(C)c1Oc1ccccc1O,inactive: -8.21%
20,CN(C)c1ccc(NC(=O)CSc2nc3ccccc3c(=O)n2C2CCCCC2)cc1,inconclusive: 51.5%
21,O=C(CN1CCCCCC1)Nc1ccccc1C(=O)Nc1ccccc1,inactive: 19.5%
22,Cc1ccccc1C(CC(=O)c1cccs1)C(C#N)C#N (centres undefined),inconclusive: 51.3%
